Values from PubChem BioAssay AID652259 (Drosophila RNAi Screening Center, 2013).

Screen: 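Genome-wide hunt for genes that control Wingless pathway activity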 (primary screen)
Cells: Drosophila clone 8 imaginal disc epithelial cells
Reagent: long dsRNA against Drosophila genes
Conditions: pathway stimulated by co-transfected Wingless expression plasmid
Measured: 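Firefly luciferase from a tcf-site Wingless reporter, measured alongside co-transfected Renilla luciferase that tracks transfection; pathway stimulated by a Wingless plasmid; the firefly-to-Renilla ratio is not deposited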
Scale: firefly reporter light: higher = more Wg reporter light, before normalisation; Renilla control light: higher = more transfected or surviving cells
Active means: 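a knock-down is a candidate when at least two out of four statistical tests show it departing from its plate mean; one test alone signals a weak candidate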
Calls: active = candidate regulator (raises or lowers reporter); inactive = not a candidate
The screen tested about 22,000 reagents; below is a random part of those with a known target gene and a result. In the full data, 233 (1.1%) were called active. 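Light values are raw, unnormalised plate reads; the ratio scores behind the reporter calls were not deposited.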 Reagents against one gene are numbered here. Names joined by + are all predicted targets of the reagent. The record does not give: the amount of reagent, the time to read-out, the dose of the treatment.

What did the screen give for Ced-12?
firefly reporter light, replicate 1: 2807; firefly reporter light, replicate 2: 7835; Renilla control light, replicate 1: 1147; Renilla control light, replicate 2: 2304; activity call: inactive

What did the screen give for CG17570 #1?
firefly reporter light, replicate 1: 18934; Renilla control light, replicate 1: 9959; activity call: inactive

Which result is listed for CG17570 #2?
firefly reporter light, replicate 1: 1683; firefly reporter light, replicate 2: 3097; Renilla control light, replicate 1: 593; Renilla control light, replicate 2: 1784; activity call: inactive

What did the screen give for Gs1l (GS1-like)?
firefly reporter light, replicate 1: 2288; firefly reporter light, replicate 2: 4875; Renilla control light, replicate 1: 736; Renilla control light, replicate 2: 1729; activity call: inactive

Which result is listed for Or33a (Odorant receptor 33a)?
firefly reporter light, replicate 1: 2338; firefly reporter light, replicate 2: 6896; Renilla control light, replicate 1: 706; Renilla control light, replicate 2: 3926; activity call: inactive

For 5-HT7 (5-hydroxytryptamine (serotonin) receptor 7), how do the results read?
firefly reporter light, replicate 1: 1824; firefly reporter light, replicate 2: 4547; Renilla control light, replicate 1: 896; Renilla control light, replicate 2: 1900; activity call: inactive

Which result is listed for Cpr78E (Cuticular protein 78E)?
firefly reporter light, replicate 1: 13376; Renilla control light, replicate 1: 4779; activity call: inactive

What is on record for CG9970?
firefly reporter light, replicate 1: 3664; Renilla control light, replicate 1: 2224; activity call: inactive

What is on record for Ir94h (Ionotropic receptor 94h)?
firefly reporter light, replicate 1: 14166; Renilla control light, replicate 1: 13837; activity call: inactive

Which result is listed for smg (smaug)?
firefly reporter light, replicate 1: 4860; Renilla control light, replicate 1: 2235; activity call: inactive

With HLH54F, what does the deposit list?
firefly reporter light, replicate 1: 4899; Renilla control light, replicate 1: 2188; activity call: inactive

What did the screen give for Orc2 (Origin recognition complex subunit 2)?
firefly reporter light, replicate 1: 6549; Renilla control light, replicate 1: 1974; activity call: inactive

What is on record for Gem4b + Gem4c?
firefly reporter light, replicate 1: 2051; Renilla control light, replicate 1: 1008; activity call: inactive

How did the screen score CecA1 (Cecropin A1)?
firefly reporter light, replicate 1: 7564; Renilla control light, replicate 1: 3056; activity call: inactive

For CG15651, what does the deposit list?
firefly reporter light, replicate 1: 1927; firefly reporter light, replicate 2: 5040; Renilla control light, replicate 1: 629; Renilla control light, replicate 2: 1852; activity call: inactive

What did the screen give for CG6938?
firefly reporter light, replicate 1: 4787; Renilla control light, replicate 1: 2428; activity call: inactive

For CG13581, how do the results read?
firefly reporter light, replicate 1: 1799; firefly reporter light, replicate 2: 8416; Renilla control light, replicate 1: 801; Renilla control light, replicate 2: 2699; activity call: inactive

For Atg7 (Autophagy-related 7) #1, what was measured?
firefly reporter light, replicate 1: 13936; Renilla control light, replicate 1: 8880; activity call: inactive

What is on record for Atg7 (Autophagy-related 7) #2?
firefly reporter light, replicate 1: 7577; Renilla control light, replicate 1: 2320; activity call: inactive

With Ser12 (Serine protease 12), what was measured?
firefly reporter light, replicate 1: 2012; firefly reporter light, replicate 2: 5445; Renilla control light, replicate 1: 881; Renilla control light, replicate 2: 2130; activity call: inactive

Not a retest: 4 of the entries above.
CG13581: firefly reporter light, replicate 1 = 1799; firefly reporter light, replicate 2 = 8416; Renilla control light, replicate 1 = 801; Renilla control light, replicate 2 = 2699; activity call = inactive
Atg7 (Autophagy-related 7) #1: firefly reporter light, replicate 1 = 13936; Renilla control light, replicate 1 = 8880; activity call = inactive
Atg7 (Autophagy-related 7) #2: firefly reporter light, replicate 1 = 7577; Renilla control light, replicate 1 = 2320; activity call = inactive
Ser12 (Serine protease 12): firefly reporter light, replicate 1 = 2012; firefly reporter light, replicate 2 = 5445; Renilla control light, replicate 1 = 881; Renilla control light, replicate 2 = 2130; activity call = inactive

Continued.
With CG6873, how do the results read?
firefly reporter light, replicate 1: 21769; Renilla control light, replicate 1: 10840; activity call: inactive

With jumu (jumeau), what does the deposit list?
firefly reporter light, replicate 1: 6992; Renilla control light, replicate 1: 1592; activity call: inactive

With CG16739, what does the deposit list?
firefly reporter light, replicate 1: 6724; Renilla control light, replicate 1: 2267; activity call: inactive

For CG4424, how do the results read?
firefly reporter light, replicate 1: 1815; firefly reporter light, replicate 2: 5681; Renilla control light, replicate 1: 947; Renilla control light, replicate 2: 1732; activity call: inactive

With TM9SF2 (Transmembrane 9 superfamily protein member 2), what does the deposit list?
firefly reporter light, replicate 1: 8675; Renilla control light, replicate 1: 1959; activity call: inactive

Which result is listed for Pex11ab (Peroxin 11a/b)?
firefly reporter light, replicate 1: 5243; Renilla control light, replicate 1: 1682; activity call: inactive

For bsd (back seat driver), how do the results read?
firefly reporter light, replicate 1: 5781; Renilla control light, replicate 1: 1000; activity call: inactive

For Pld (Phospholipase D), how do the results read?
firefly reporter light, replicate 1: 10248; Renilla control light, replicate 1: 3485; activity call: inactive

With CG32109, what does the deposit list?
firefly reporter light, replicate 1: 7490; Renilla control light, replicate 1: 3392; activity call: inactive

For Tsp42A (Tetraspanin 42A), how do the results read?
firefly reporter light, replicate 1: 2965; firefly reporter light, replicate 2: 6758; Renilla control light, replicate 1: 764; Renilla control light, replicate 2: 2251; activity call: inactive

Which result is listed for CG31533?
firefly reporter light, replicate 1: 3900; Renilla control light, replicate 1: 1014; activity call: inactive

What is on record for Mekk1 #1?
firefly reporter light, replicate 1: 3764; firefly reporter light, replicate 2: 8195; Renilla control light, replicate 1: 1968; Renilla control light, replicate 2: 1222; activity call: inactive

Which result is listed for Mekk1 #2?
firefly reporter light, replicate 1: 21072; Renilla control light, replicate 1: 2885; activity call: inactive
